No constants are given. Whether binding was seen depends on the method and setting. Some results given as binding are weak or reduced against the parent protein; the word gives no strength. Tags and fused reporters may be left off the sequences shown.
Target: CD40/Fc fusion protein (human) (UniProt P25942)
Assay: solid phase CD40 binding assay substantially as in Example 16

B1: CD40 ligand/zipper domain fusion protein mutant 18 (ligand)
chain: RMKQIEDKIEEIPSKIYHIENEIARIKKLIGERDKIEDERNLHEDFVFMKTIQRCNTGERSLSLLNCEEIKSQFEGFVKDIMLNKEETKKENSFEMQKGDQNPQIAAHVISEPSSKTTSVLQWAEKGYYTMSNNLVTLENGKQLTVKRQGLYYIYAQVTFCSNQEASSQAPFIASLCLKSPGRFERILLRAANTHSSAKPCGQQSIHLGGVFELQPGASVFVNVTDPSQVSHGTGFTSFGLLKL
- binding: binds

B2: CD40 ligand/zipper domain fusion protein mutant 43 (ligand)
chain: RMKQIEDKIEEILSKNYHIENEIARIKKLIGERDKIEDERNLHEDFVFMKTIQRCNTGERSLSLLNCEEIKSQFEGFVKDIMLNKEETKKENSFEMQKGDQNPQIAAHVISEASSKSTSVLQWAEKGYYTMSNNLVTLENGKQLTVIRQGLYYIYAQVTFCSNREASSLAPFIASLCLKSPGRFERILLRAASTHSSAKPCGQQSIHLGGVFELQPGASVFVNVTDPSQVSHGTGFTSFGLLKL
- binding: binds

— US20030091564A1
